Drawing on article PMC11397430, this text covers binding for one substance.

Chains of the proteins cited; added tags and fusions are not shown. Lines headed by an entry give the natural chain unless they say otherwise; changes in a name come on top.
UniProt Q96GC6: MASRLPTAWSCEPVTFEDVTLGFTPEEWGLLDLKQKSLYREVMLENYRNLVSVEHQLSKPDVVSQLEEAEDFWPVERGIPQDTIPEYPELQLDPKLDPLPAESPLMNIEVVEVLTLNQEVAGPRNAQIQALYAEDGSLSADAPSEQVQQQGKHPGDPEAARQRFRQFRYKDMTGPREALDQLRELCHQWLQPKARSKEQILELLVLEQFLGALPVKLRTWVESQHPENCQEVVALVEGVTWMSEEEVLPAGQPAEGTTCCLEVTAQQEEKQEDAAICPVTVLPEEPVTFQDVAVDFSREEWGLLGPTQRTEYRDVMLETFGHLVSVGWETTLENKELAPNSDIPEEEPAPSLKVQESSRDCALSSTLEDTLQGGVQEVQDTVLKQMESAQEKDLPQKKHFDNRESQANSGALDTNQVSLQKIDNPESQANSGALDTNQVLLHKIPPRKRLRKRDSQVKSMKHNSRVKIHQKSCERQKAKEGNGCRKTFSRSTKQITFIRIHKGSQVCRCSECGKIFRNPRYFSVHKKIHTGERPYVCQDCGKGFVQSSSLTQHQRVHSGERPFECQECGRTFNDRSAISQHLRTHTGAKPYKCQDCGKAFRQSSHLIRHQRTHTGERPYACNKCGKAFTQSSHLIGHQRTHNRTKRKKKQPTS
UniProt Q13263: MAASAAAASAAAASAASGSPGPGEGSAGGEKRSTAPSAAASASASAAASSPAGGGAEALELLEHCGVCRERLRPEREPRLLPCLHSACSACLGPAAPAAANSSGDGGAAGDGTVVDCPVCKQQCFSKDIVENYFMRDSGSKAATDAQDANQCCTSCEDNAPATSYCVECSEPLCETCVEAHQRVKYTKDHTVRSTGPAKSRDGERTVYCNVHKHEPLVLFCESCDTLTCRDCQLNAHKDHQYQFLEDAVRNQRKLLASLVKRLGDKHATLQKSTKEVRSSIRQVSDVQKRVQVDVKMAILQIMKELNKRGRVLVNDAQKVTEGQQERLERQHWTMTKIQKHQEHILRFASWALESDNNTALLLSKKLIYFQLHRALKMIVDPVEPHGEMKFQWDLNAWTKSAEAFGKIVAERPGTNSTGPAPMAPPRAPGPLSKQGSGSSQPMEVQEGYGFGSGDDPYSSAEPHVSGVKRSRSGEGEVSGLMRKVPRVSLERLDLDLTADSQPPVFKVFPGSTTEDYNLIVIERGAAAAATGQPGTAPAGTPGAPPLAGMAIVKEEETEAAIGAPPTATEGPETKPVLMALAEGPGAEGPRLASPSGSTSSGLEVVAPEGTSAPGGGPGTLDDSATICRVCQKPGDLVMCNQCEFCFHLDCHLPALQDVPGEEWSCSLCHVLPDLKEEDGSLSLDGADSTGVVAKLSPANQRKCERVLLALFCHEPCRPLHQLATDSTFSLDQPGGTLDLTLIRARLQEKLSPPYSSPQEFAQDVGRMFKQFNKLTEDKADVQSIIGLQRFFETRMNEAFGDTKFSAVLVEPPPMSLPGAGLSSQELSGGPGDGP

These are yes or no findings as the source states them, for the method shown. Binding seen in cells or lysates may run through a third protein.

This assay has as its target ΔKRAB-ZNF274 (ZNF274 with the two KRAB domains deleted) (human) (UniProt Q96GC6). Nature of the assay: co-IP; HEK293T cells cotransfected with HA- and Flag-tagged ZNF274 constructs, 24 h with doxycycline; lysis in IP buffer (0.5% NP-40, 500 mM Tris pH 7.4, 20 mM EDTA); anti-Flag Sepharose or anti-HA magnetic beads overnight at 4°C; immunoblot for HA, Flag and KAP1. Background: Immunoblotting shows a protein as a band on a membrane.

With KAP1/TRIM28 (from UniProt Q13263 1-835), the binding entry was “no binding”.
